Data reported in US20080145360A1.
Results are given in words; binding and its absence hold for the method and conditions named.

Biological target: keyhole limpet hemocyanin, protein carrier
Experiment: ELISA with exchanged laydown conjugates (KLH exchanged for BSA)

- binding: no binding
B1: murine anti-S1P monoclonal antibody (Sphingomab, hybridoma clone 306D326.26, ATCC SD-5362) (antibody, mouse IgG1, V domains shown)
VH: QAHLQQSDAELVKPGASVKISCKVSGFIFIDHTIHWMKQRPEQGLEWIGCISPRHDITKYNEMFRGKATLTADKSSTTAYIQVNSLTFEDSAVYFCARGGFYGSTIWFDFWGQGTTLTVS
VL: ETTVTQSPASLSMAIGEKVTIRCITTTDIDDDMNWFQQKPGEPPNLLISEGNILRPGVPSRFSSSGYGTDFLFTIENMLSEDVADYYCLQSDNLPFTFGSGTKLEIK
